Like-named read-outs stand apart in the source and are kept apart here. Not every detail of the peptide structures is certain; ends, links or a residue may be inferred. For some of these results: At least one compound was matched to its structure with a doubt left. Peptide text beside a SMILES is read from it.
Key:
[1] = test system: myenteric plexus-longitudinal muscle of the guinea pig; conditions: values marked ** (from literature); cited from earlier work
Mouse vas deferens [2] = conditions: values marked ** (from literature); cited from earlier work
Rabbit vas deferens = test: Opioid bioassay, rabbit vas deferens; type: cell-based; conditions: mean±SEM; peptidases inhibited by bestatin (30 μM), L-leucyl-L-leucine, thiorphan, captopril
Procedure: (§1) Bioassays were performed using preparations of the myenteric plexus-longitudinal muscle of the guinea pig and the vasa deferentia of the mouse, rabbit and rat. According to the procedures described by McKnight et al., Eur. J. Pharmacol., 86, 393-402 (1983) and Corbett et al., Nature, 299, 79-81 (1982). The drugs were prepared as 1 mg/ml stock solutions in water and dilutions were made in Krebs solution. The bioassays were performed on [Met 5] enkephalin and C-terminally extended Met 5 enkephalins, and compared with metorphamide.
(§2) The values shown are the mean±SEM of 4 observations and of 6 for [Met^5 ]enkephalyl-Arg-Arg-Val-Gly. The activity of the peptidases was inhibited by bestatin (10 μM, or 30 μM in the rat and rabbit), L-leucyl-L-leucine ([…]), thiorphan (0.3 μM) and captopril (10 μM).

Chains of the proteins cited; added tags and fusions are not shown. Lines headed by an entry give the natural chain unless they say otherwise; changes in a name come on top.
UniProt P41144: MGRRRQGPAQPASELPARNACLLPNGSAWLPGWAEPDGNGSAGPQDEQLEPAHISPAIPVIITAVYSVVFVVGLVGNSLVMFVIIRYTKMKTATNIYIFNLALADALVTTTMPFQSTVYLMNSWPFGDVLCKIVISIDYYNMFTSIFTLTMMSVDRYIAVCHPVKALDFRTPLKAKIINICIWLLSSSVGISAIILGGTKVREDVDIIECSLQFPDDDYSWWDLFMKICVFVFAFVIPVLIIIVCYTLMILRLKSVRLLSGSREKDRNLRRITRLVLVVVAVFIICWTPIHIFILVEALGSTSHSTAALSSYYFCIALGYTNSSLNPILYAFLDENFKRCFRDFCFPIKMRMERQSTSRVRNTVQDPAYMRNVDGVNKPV

Rat vas deferens [3] = conditions: values marked ** (from literature); cited from earlier work
μ-site = test: Binding assay in guinea pig brain homogenates, μ-ligand [3H]-[D-Ala2,MePhe4,Gly-ol5]enkephalin; conditions: for Ki: guinea-pig brain homogenates, 150 minutes at 0° C., mean ±SEM, read-out: KI, [3H]-[DAla2,MePhe4,Gly-ol5]enkephalin (μ-site)
Procedure: (§3) [^3 H]-[D-Ala^2,MePhe^4, Gly-ol^5 ]enkephalin (1 nM) was used as μ-ligand, [^3 H]-[D-Ala^2,D-Leu^5 ]enkephalin (1 nM) as a relatively selective δ-ligand and [^3 H]-(-)-bremazocine (0.3 nM) as κ-ligand, in the presence of 100 nM each of unlabelled [D-Ala^2,MePhe^4,Gly-ol^5 ]enkephalin and [D-Ala^2,D-Leu^5 ]enkephalin for the suppression of μ- and δ-binding.
(§4) The μ- and […] of [^3 H]-(-)-bremazocine was suppressed with 100 nM each of unlabelled [D-Ala^2,MePhe^4,Gly-ol^5 ]enkephalin and [D-Ala^2,D-Leu^5 ]enkephalin.

δ-site = type: binding, guinea pig; conditions: for Ki: guinea-pig brain homogenates, 150 minutes at 0° C., mean ±SEM, read-out: KI, [3H]-[DAla2,D-Leu5]enkephalin (δ-site)
Procedure: as §3, §4

Mouse vas deferens [4] = test: Opioid bioassay, mouse vas deferens; type: cell-based; conditions: mean±SEM; peptidases inhibited by bestatin, L-leucyl-L-leucine, thiorphan, captopril
Procedure: as §1, §2

κ-site = biological target: T1, κ-site (Cavia porcellus, UniProt P41144); test: Binding assay in guinea pig brain homogenates, [3H]-(-)-bremazocine after suppression of μ- and δ-binding; conditions: for Ki: read-out: KI, [3H]-(-)-bremazocine after suppression of μ- and δ-binding (κ-site), guinea-pig brain homogenates, 150 minutes at 0° C., mean ±SEM
T1 construct: The assays used homogenates of guinea-pig brain; from tissue; host or cells: guinea pig brain homogenate
Procedure: as §3, §4

Rat vas deferens [5] = test: Opioid bioassay, rat vas deferens; type: cell-based; conditions: peptidases inhibited by bestatin (30 μM), L-leucyl-L-leucine, thiorphan, captopril
Procedure: as §1, §2

[6] = test system: anti-serum (R1-3) to synthetic metorphamide; test: Radioaminoassay of metorphamide: cross-reaction with anti-serum R1-3, 125I-labeled synthetic metorphamide as tracer; type: binding, rabbit; conditions: on a molar basis
From the text: An anti-serum to synthetic metorphamide was generated in male New Zealand white rabbits by injecting synthetic peptide linked to bovine thyroglobulin by carbodiimide according the method of Weber et al., J. Neurochem., 38, 436-447 (1982). The resulting anti-serum (R1-3) was used in a radioaminoassay using ^125 I labeled synthetic metorphamide as a tracer. The procedure used was as described by Weber et al. with modifications described by Weber et al., Nature, 299, 77-79 (1982). The metorphamide or radioaminoassay requires the carboxylterminal amide group as part of the recognition site. On a molar basis the free carboxy derivative of metorphamide cross reacts with less than 1.02% and the analog of metorphamide in which the carboxyterminal amide was substituted by a Glycine residue cross reacts at less than 0.3%. The adrenal medulla opioid peptides Bam-22 and Bam-12 (Mizuno et al., Biochem. Biophys. Res. Commun., 95, 1482-1488 (1980); Mizuno et al., Biochem. Biophys. Res. Commun., 97, 1283-1290 (1980)) which are carboxyterminal extensions of metorphamide both cross react less than 0.006% in the radioaminoassay.

[7] = test system: myenteric plexus-longitudinal muscle of the guinea pig; test: Opioid bioassay, guinea-pig myenteric plexus-longitudinal muscle; type: cell-based; conditions: mean±SEM; peptidases inhibited by bestatin, L-leucyl-L-leucine, thiorphan, captopril
Procedure: as §1, §2

[8] = at KD concentrations of the tritiated ligands, total binding=1

Compound | IC50 [1] | IC50 (Mouse vas deferens [2]) | IC50 (Rabbit vas deferens) | IC50 (Rat vas deferens [3]) | Ki (μ-site) | Ki (δ-site) | Ki (κ-site) | further results
CSCC[C@H](NC(=O)[C@H](Cc1ccccc1)NC(=O)CNC(=O)CNC(=O)[C@@H](N)Cc1ccc(O)cc1)C(=O)N[C@@H](CCCNC(=N)N)C(=O)O [B, [Met^5]enkephalylArg] (H-YGGFMR-OH) | 14.4 nM | 14.2 nM | > 10000 nM | 218 nM |  |  |  | 
CSCC[C@H](NC(=O)[C@H](Cc1ccccc1)NC(=O)CNC(=O)CNC(=O)[C@@H](N)Cc1ccc(O)cc1)C(=O)N[C@@H](CCCNC(=N)N)C(=O)N[C@@H](CCCNC(=N)N)C(=O)O [C, [Met^5]enkephalylArg-Arg] | 3.28 nM | 6.4 nM | 126 ± 34 nM | 1600 nM | 3.01 ± 0.75 nM | 4.42 ± 0.61 nM |  | 
CSCC[C@H](NC(=O)[C@H](Cc1ccccc1)NC(=O)CNC(=O)CNC(=O)[C@@H](N)Cc1ccc(O)cc1)C(=O)N[C@@H](CCCNC(=N)N)C(=O)N[C@@H](CCCNC(=N)N)C(=O)N[C@H](C(=O)O)C(C)C [D, [Met^5 ]enkephalylArg-Arg-Val] |  |  | 31.4 ± 4.1 nM |  | 0.285 ± 0.025 nM | 4.28 ± 0.89 nM |  | IC50 (Mouse vas deferens [4]): 12.7 ± 3.1 nM; relative potency (relative affinity) at the κ-site (κ-site; [8]): 0.11; IC50 (Rat vas deferens [5]): > 3400 nM; relative potency (relative affinity) at the μ-site (μ-site; [8]): 0.83; cross reaction in the metorphamide radioaminoassay [6]: less than 1.02%; relative potency (relative affinity) at the δ-site (δ-site; [8]): 0.06; IC50 [7]: 12.8 ± 6 nM
CSCC[C@H](NC(=O)[C@H](Cc1ccccc1)NC(=O)CNC(=O)CNC(=O)[C@@H](N)Cc1ccc(O)cc1)C(=O)N[C@@H](CCCNC(=N)N)C(=O)N[C@@H](CCCNC(=N)N)C(=O)N[C@H](C(=O)NCC(=O)O)C(C)C [E] (H-YGGFMRRVG-OH; N-terminus and C-terminus assumed) |  |  |  |  |  |  | 6.15 ± 1.13 nM | 
CSCC[C@H](NC(=O)[C@H](Cc1ccccc1)NC(=O)CNC(=O)CNC(=O)[C@@H](N)Cc1ccc(O)cc1)C(=O)N[C@@H](CCCNC(=N)N)C(=O)N[C@@H](CCCNC(=N)N)C(=O)N[C@H](C(N)=O)C(C)C [F] |  |  |  |  |  |  | 0.248 ± 0.034 nM | 

— US4490363A, “Metorphamide--a novel morphine-like peptide” (Board of Trustees of The Leland Stanford Junior University …, priority 1983, dated 1984)
